Measurements taken from PubChem BioAssay AID248 (DTP/NCI, 2004).
The list does not hold the whole screen: it is rich in T/C values a quarter to a half above the control, in often repeated tests (any T/C) and in doses without a T/C. Other doses and runs of a compound stand elsewhere. T/C is the treated group as % of the vehicle group. Some entries give survivors of the animals treated and no T/C: the source files T/C as zero there, which appears to mark a toxic dose or a test without result, not a measured value. Some survivor counts are full or nearly so, which does not show that the dose was tolerated: the source hardly ever lists a survival T/C far under the control, and the zero likely stands for such cases as well. Survivors were counted at the toxicity check, usually on the fifth day, unless a day is given; later deaths do not show. Schedule codes are those of the source, taken here to give the interval after Q, in days (D) or hours (H), and the number of doses after X. Some doses were run more than once; the values are given in rising order. Some schedules carry Z or #; the key to these is not given. For survival time, the PubChem record calls one and a half times the control and up active, and a quarter to a half above the control has no call in these data; cut-offs in other NCI protocols can differ.

System: L1210 leukemia ip in BDF1 mice, survival T/C
Experiment: NCI In Vivo Anticancer Drug Screen. Data for tumor model L1210 Leukemia (intraperitoneal) in B6D2F1 (BDF1) mice
Conditions: higher T/C = longer survival
[1] = T/C endpoint: mean survival time, dose: 400.0 mg/kg/injection, schedule: Q04DX003 (ip), vehicle: saline with Tween-80
[2] = T/C endpoint: mean survival time, dose: 100.0 mg/kg/injection, schedule: Q01DX009 (ip), vehicle: saline with Tween-80
[3] = T/C endpoint: mean survival time, dose: 200.0 mg/kg/injection, schedule: Q01DX001 (ip), vehicle: saline
[4] = T/C endpoint: mean survival time, dose: 400.0 mg/kg/injection, schedule: Q01DX001 (ip), vehicle: saline
[5] = T/C endpoint: mean survival time, dose: 400.0 mg/kg/injection, schedule: Q01DX009 (ip), vehicle: saline with Tween-80
[6] = T/C endpoint: mean survival time, dose: 400.0 mg/kg/injection, schedule: Q04DX003 (ip), vehicle: Klucel (hydroxypropylcellulose) (HPC)
[7] = T/C endpoint: mean survival time, dose: 200.0 mg/kg/injection, schedule: Q01DX009 (ip), vehicle: saline with Tween-80
[8] = T/C endpoint: mean survival time, dose: 400.0 mg/kg/injection, schedule: Q01DX009 (ip), vehicle: Klucel (hydroxypropylcellulose) (HPC)
[9] = T/C endpoint: mean survival time, dose: 300.0 mg/kg/injection, schedule: Q01DX001 (ip), vehicle: saline
[10] = T/C endpoint: mean survival time, dose: 400.0 mg/kg/injection, schedule: Q01DX009 (ip), vehicle: saline

SMILES: S=C(NCc1ccccc1)Nc1ccccc1
- survivor count [1]: 0 of 3

SMILES: COc1ccc(O)c(C2(O)OC(=O)c3c(OC)cccc32)c1 (stereo unspecified)
- survivor count (T/C endpoint: mean survival time, dose: 400.0 mg/kg/injection, schedule: Q01DX009 (ip), vehicle: carboxymethylcellulose (CMC)): 3 of 3 and 6 of 6

SMILES: CC1=CCC=C(CNc2ncnc3nc[nH]c23)C1
- survivor count [2]: 6 of 6

SMILES: CCC(O)C(CC(C)N(C)C)(c1ccccc1)c1ccccc1 (stereo unspecified)
- survivor count [3]: 0 of 4
- survivor count [4]: 0 of 4

SMILES: FC(F)(F)c1cc(CN(CCCl)CCCl)cc(C(F)(F)F)c1
- T/C (T/C endpoint: mean survival time, dose: 5.5 mg/kg/injection, schedule: Q01DX009 (ip), vehicle: saline): 126 % of control
- survivor count (T/C endpoint: mean survival time, dose: 120.0 mg/kg/injection, schedule: Q01DX009 (ip), vehicle: other): 4 of 6
- survivor count (T/C endpoint: mean survival time, dose: 200.0 mg/kg/injection, schedule: Q01DX009 (ip), vehicle: other): 1 of 6
- survivor count (T/C endpoint: mean survival time, dose: 200.0 mg/kg/injection, schedule: Q01DX015 (ip), vehicle: carboxymethylcellulose (CMC)): 5 of 6
- survivor count (T/C endpoint: mean survival time, dose: 266.0 mg/kg/injection, schedule: Q04DX003 (ip), vehicle: other): 6 of 6
- T/C (T/C endpoint: mean survival time, dose: 400.0 mg/kg/injection, schedule: Q01DX001 (ip), vehicle: carboxymethylcellulose (CMC)): 125 % of control
- survivor count (T/C endpoint: mean survival time, dose: 400.0 mg/kg/injection, schedule: Q04DX003 (ip), vehicle: other): 4 of 5
- survivor count (T/C endpoint: mean survival time, dose: 600.0 mg/kg/injection, schedule: Q01DX001 (ip), vehicle: other): 0 of 6
- survivor count (T/C endpoint: mean survival time, dose: 900.0 mg/kg/injection, schedule: Q01DX001 (ip), vehicle: other): 1 of 6

SMILES: Cc1c(Cl)cccc1NC(=O)/C=C/C(=O)O
- survivor count [5]: 0 of 6

SMILES: CNc1ccc(/C=C2\C=Cc3ccccc32)cc1
- survivor count (T/C endpoint: mean survival time, dose: 400.0 mg/kg/injection, schedule: Q01DX Z (ip), vehicle: carboxymethylcellulose (CMC)): 3 of 6

SMILES: CC1(C)C(C#N)C(=O)N=C(N)C1C(N)=O (stereo unspecified)
- survivor count (T/C endpoint: mean survival time, dose: 200.0 mg/kg/injection, schedule: Q04DX003 (ip), vehicle: Klucel (hydroxypropylcellulose) (HPC)): 6 of 6
- survivor count [6]: 5 of 6

SMILES: CC(C)(C)c1ccc(SCCN=C(N)CSSCC(N)=NCCSc2ccc(C(C)(C)C)cc2)cc1
- survivor count (T/C endpoint: mean survival time, dose: 100.0 mg/kg/injection, schedule: Q04DX003 (ip), vehicle: carboxymethylcellulose (CMC)): 0 of 6
- survivor count (T/C endpoint: mean survival time, dose: 200.0 mg/kg/injection, schedule: Q04DX003 (ip), vehicle: carboxymethylcellulose (CMC)): 0 of 6
- survivor count (T/C endpoint: mean survival time, dose: 400.0 mg/kg/injection, schedule: Q04DX003 (ip), vehicle: carboxymethylcellulose (CMC)): 0 of 6

SMILES: CC(C)(Cl)Cc1ccccc1
- survivor count [5]: 6 of 6

SMILES: CCCCN(CCCC)C(=O)CCC
- survivor count (T/C endpoint: mean survival time, dose: 400.0 mg/kg/injection, schedule: Q04DX003 (ip), vehicle: saline): 3 of 6

SMILES: O=NCC1(Cl)CC2C=CC1C2 (stereo unspecified)
- survivor count [2]: 1 of 6
- survivor count [7]: 0 of 6
- survivor count [5]: 0 of 6

SMILES: C[CH2][Sn]([CH2]C)([O]S(C)(=O)=O)[O]S(C)(=O)=O
- survivor count (T/C endpoint: mean survival time, dose: 25.0 mg/kg/injection, schedule: Q01DX009 (ip), vehicle: saline): 2 of 6

SMILES: OC(CN1CCOCC1)c1ccccc1 (stereo unspecified)
- survivor count [8]: 3 of 6
- survivor count [6]: 3 of 6

SMILES: O=C(Nc1ccc(CC2=NCCN2)cc1)c1cccc(C(=O)Nc2ccc(CC3=NCCN3)cc2)c1
- survivor count (T/C endpoint: mean survival time, dose: 33.0 mg/kg/injection, schedule: Q01DX Z (ip), vehicle: carboxymethylcellulose (CMC)): 2 of 6
- survivor count (T/C endpoint: mean survival time, dose: 50.0 mg/kg/injection, schedule: Q01DX Z (ip), vehicle: carboxymethylcellulose (CMC)): 0 of 6
- survivor count (T/C endpoint: mean survival time, dose: 75.0 mg/kg/injection, schedule: Q01DX Z (ip), vehicle: carboxymethylcellulose (CMC)): 0 of 6

SMILES: O=C(c1ccc([N+](=O)[O-])cc1)N1C2CCCCCCC21 (stereo unspecified)
- survivor count [4]: 6 of 6

SMILES: O=C1C=C(O)C2=C(CCCC2)C1=O
- survivor count (T/C endpoint: mean survival time, dose: 200.0 mg/kg/injection, schedule: Q01DX001 (ip), vehicle: water): 1 of 6
- survivor count (T/C endpoint: mean survival time, dose: 400.0 mg/kg/injection, schedule: Q01DX001 (ip), vehicle: water): 0 of 6

SMILES: COC(=O)c1n[nH]c(C)c1N=NN(C)C
- survivor count [9]: 0 of 6

SMILES: CC(C)N1CCC1C (stereo unspecified)
- survivor count (T/C endpoint: mean survival time, dose: 200.0 mg/kg/injection, schedule: Q04DX003 (ip), vehicle: acetone): 4 of 6
- survivor count (T/C endpoint: mean survival time, dose: 400.0 mg/kg/injection, schedule: Q04DX003 (ip), vehicle: acetone): 0 of 6

SMILES: O=C(O)CCC(=O)c1cccc2ccccc12
- survivor count [10]: 3 of 6

SMILES: CNC(=O)Oc1ccc(/C=N/NC(=O)c2ccncc2)cc1OC
- survivor count [8]: 5 of 6

SMILES: Cc1cccc([N+](=O)[O-])c1-c1ccccc1C(=O)O
- survivor count [8]: 6 of 6

SMILES: Cc1c(CCO)sc[n+]1Cc1ccccc1[N+](=O)[O-]
- survivor count [3]: 0 of 6
- survivor count [4]: 0 of 6

SMILES: CC1=C(/C=C/C(C)=N/NC(N)=O)C(C)(C)CCC1
- survivor count [10]: 3 of 6

SMILES: COc1ccccc1C(C#N)NCCCNC(C#N)c1ccccc1OC (stereo unspecified)
- survivor count (T/C endpoint: mean survival time, dose: 40.0 mg/kg/injection, schedule: Q01DX001 (ip), vehicle: saline): 1 of 6
- survivor count (T/C endpoint: mean survival time, dose: 75.0 mg/kg/injection, schedule: Q01DX001 (ip), vehicle: saline): 0 of 6
- survivor count (T/C endpoint: mean survival time, dose: 150.0 mg/kg/injection, schedule: Q01DX001 (ip), vehicle: saline): 0 of 6
- survivor count [9]: 0 of 6

SMILES: Clc1nc2nc(Cl)n(Cl)c2nc1Cl
- survivor count [5]: 0 of 6

SMILES: C(=N\Nc1nc2ccccc2s1)/c1ccc2ccccc2n1
- survivor count [8]: 3 of 6

SMILES: CC(=O)n1ncc2ccc(N)cc21
- survivor count (T/C endpoint: mean survival time, dose: 200.0 mg/kg/injection, schedule: Q01DX009 (ip), vehicle: water): 1 of 6
- survivor count (T/C endpoint: mean survival time, dose: 400.0 mg/kg/injection, schedule: Q04DX003 (ip), vehicle: water): 2 of 6

SMILES: COc1ccc2c(c1)N(CCCN(C)C)c1ccccc1S2
- survivor count (T/C endpoint: mean survival time, dose: 150.0 mg/kg/injection, schedule: Q04DX003 (ip), vehicle: saline): 0 of 4
- survivor count (T/C endpoint: mean survival time, dose: 300.0 mg/kg/injection, schedule: Q04DX003 (ip), vehicle: saline): 0 of 4

SMILES: CCCCCCCCCCCCCCCCC(C(=O)O)C(O)(CC(=O)O)C(=O)O (stereo unspecified)
- survivor count (T/C endpoint: mean survival time, dose: 150.0 mg/kg/injection, schedule: Q01DX Z (ip), vehicle: carboxymethylcellulose (CMC)): 0 of 6
- survivor count (T/C endpoint: mean survival time, dose: 300.0 mg/kg/injection, schedule: Q01DX Z (ip), vehicle: carboxymethylcellulose (CMC)): 0 of 6
- survivor count (T/C endpoint: mean survival time, dose: 600.0 mg/kg/injection, schedule: Q01DX Z (ip), vehicle: carboxymethylcellulose (CMC)): 0 of 6

SMILES: NC(=O)C1C(=O)OC2(CC2)C1c1ccccc1 (stereo unspecified)
- survivor count [4]: 3 of 4

SMILES: CCOC(=O)c1cnn2c(SC)ncnc12
- survivor count [7]: 4 of 6

SMILES: CC[C@H]1CN2CCc3cc(OC)c(OC)cc3[C@@H]2C[C@@H]1C[C@H]1NCCc2c1[nH]c1ccc(OC)cc21
- T/C (T/C endpoint: mean survival time, dose: 8.0 mg/kg/injection, schedule: Q01DX005 (ip), vehicle: saline): 126 % of control
- T/C (T/C endpoint: mean survival time, dose: 8.0 mg/kg/injection, schedule: Q01DX009 (ip), vehicle: saline): 125 % of control
- T/C (T/C endpoint: mean survival time, dose: 16.0 mg/kg/injection, schedule: Q01DX005 (ip), vehicle: saline): 149 % of control
- survivor count (T/C endpoint: mean survival time, dose: 32.0 mg/kg/injection, schedule: Q01DX005 (ip), vehicle: saline): 5 of 10
- survivor count (T/C endpoint: mean survival time, dose: 32.0 mg/kg/injection, schedule: Q01DX009 (ip), vehicle: saline): 4 of 10
- survivor count (T/C endpoint: mean survival time, dose: 64.0 mg/kg/injection, schedule: Q04DX003 (ip), vehicle: saline): 3 of 10
- T/C (T/C endpoint: median survival time, dose: 32.0 mg/kg/injection, schedule: Q04DX003 (ip), vehicle: saline + alcohol): 129 % of control

SMILES: CCC[CH2][Sn]1([CH2]CCC)[S]CCOB(OCC[S][Sn]([CH2]CCC)([CH2]CCC)[S]CCOB2OCC[S][Sn]([CH2]CCC)([CH2]CCC)[S]CCO2)OCC[S]1
- survivor count (T/C endpoint: mean survival time, dose: 100.0 mg/kg/injection, schedule: Q01DX001 (ip), vehicle: Klucel (hydroxypropylcellulose) (HPC)): 1 of 6
- survivor count (T/C endpoint: mean survival time, dose: 200.0 mg/kg/injection, schedule: Q01DX001 (ip), vehicle: Klucel (hydroxypropylcellulose) (HPC)): 0 of 6
- survivor count (T/C endpoint: mean survival time, dose: 400.0 mg/kg/injection, schedule: Q01DX001 (ip), vehicle: Klucel (hydroxypropylcellulose) (HPC)): 0 of 6

SMILES: CCCN(CCC)CCCCN(CCC)CCCN(CCC)CCC
- survivor count [4]: 0 of 4

SMILES: CCCCCCCC/C=C\CCCCCCCCOC(N)=O
- survivor count [1]: 6 of 6
